These are yes or no findings as the source states them, for the method shown. In cells and extracts the contact can be indirect.
Target: TRIM25 (endogenous, RD cells) (human (endogenous in RD)) (UniProt Q14258)
Test: co-IP

Protein sequences, listed by entry. Tags and fused reporters are not part of them.
UniProt Q14258: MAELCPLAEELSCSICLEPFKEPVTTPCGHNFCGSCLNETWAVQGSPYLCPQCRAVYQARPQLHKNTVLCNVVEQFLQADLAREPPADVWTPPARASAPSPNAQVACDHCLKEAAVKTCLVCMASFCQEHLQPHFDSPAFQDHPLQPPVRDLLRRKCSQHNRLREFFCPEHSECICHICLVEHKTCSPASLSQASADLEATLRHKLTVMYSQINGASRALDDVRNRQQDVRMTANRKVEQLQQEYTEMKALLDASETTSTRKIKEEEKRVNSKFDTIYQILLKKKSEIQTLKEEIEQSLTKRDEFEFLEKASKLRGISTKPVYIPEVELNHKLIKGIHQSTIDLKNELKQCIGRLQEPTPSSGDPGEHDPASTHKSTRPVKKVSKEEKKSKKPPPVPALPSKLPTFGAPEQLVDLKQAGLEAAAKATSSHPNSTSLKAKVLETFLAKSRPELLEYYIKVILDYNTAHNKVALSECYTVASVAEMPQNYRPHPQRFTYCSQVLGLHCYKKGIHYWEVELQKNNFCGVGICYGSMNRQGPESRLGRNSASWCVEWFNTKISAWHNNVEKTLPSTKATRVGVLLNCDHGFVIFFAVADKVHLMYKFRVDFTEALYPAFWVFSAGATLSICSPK

binding: no binding
Substance: SAMHD1-HA (stably expressed in RD cells) (from UniProt Q9Y3Z3 1-626)
